# The supplement of paper PMC12823440, “Inhibitors supercharge kinase turnover through native proteolytic circuits” (Nature, 2025)
# The chains behind the UniProt entries cited, without tags or fusion partners. Where a name states a change or a piece, a line headed by the entry shows the natural chain unless it says otherwise.
# UniProt Q9BUB5: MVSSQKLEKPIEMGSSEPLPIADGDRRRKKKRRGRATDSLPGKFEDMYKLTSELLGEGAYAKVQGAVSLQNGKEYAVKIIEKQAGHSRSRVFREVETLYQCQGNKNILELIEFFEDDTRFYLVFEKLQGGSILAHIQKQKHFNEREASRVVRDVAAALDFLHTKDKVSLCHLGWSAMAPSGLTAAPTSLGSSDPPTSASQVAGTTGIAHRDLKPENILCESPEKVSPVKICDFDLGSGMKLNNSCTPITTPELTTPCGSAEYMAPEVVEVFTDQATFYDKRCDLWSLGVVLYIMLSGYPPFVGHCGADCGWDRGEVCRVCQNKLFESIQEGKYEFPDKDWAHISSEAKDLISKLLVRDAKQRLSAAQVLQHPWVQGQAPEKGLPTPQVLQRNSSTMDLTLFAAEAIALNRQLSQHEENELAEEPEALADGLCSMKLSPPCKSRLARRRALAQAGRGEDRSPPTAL
# UniProt Q16620, whole entry, looked up: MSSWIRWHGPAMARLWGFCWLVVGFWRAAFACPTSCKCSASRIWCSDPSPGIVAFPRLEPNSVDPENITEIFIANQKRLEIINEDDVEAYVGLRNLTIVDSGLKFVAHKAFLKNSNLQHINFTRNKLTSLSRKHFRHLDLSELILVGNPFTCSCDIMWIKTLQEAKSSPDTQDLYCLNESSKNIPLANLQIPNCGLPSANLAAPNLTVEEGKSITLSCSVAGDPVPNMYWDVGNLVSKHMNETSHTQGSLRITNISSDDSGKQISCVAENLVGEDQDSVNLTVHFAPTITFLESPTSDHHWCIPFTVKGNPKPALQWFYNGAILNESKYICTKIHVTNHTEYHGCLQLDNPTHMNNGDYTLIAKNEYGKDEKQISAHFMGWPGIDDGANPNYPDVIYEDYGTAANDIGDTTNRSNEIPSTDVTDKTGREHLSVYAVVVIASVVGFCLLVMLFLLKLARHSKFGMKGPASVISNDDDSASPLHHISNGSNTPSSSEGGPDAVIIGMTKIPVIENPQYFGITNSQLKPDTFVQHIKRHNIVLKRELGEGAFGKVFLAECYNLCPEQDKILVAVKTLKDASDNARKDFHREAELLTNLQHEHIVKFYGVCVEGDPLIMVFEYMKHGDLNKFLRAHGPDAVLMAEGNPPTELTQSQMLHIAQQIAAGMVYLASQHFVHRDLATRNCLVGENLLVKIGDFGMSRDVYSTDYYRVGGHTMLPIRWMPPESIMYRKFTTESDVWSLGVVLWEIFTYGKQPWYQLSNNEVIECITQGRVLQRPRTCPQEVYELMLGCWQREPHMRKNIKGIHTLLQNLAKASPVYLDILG
# UniProt Q96KB5: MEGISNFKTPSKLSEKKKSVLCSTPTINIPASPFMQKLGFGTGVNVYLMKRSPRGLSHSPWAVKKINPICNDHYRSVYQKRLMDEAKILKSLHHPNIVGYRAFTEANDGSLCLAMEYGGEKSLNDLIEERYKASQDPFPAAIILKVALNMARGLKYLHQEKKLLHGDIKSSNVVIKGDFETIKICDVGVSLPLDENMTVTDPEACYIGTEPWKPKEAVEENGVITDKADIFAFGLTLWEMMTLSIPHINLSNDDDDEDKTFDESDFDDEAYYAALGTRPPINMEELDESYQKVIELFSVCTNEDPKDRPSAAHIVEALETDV
# UniProt P09619, whole entry: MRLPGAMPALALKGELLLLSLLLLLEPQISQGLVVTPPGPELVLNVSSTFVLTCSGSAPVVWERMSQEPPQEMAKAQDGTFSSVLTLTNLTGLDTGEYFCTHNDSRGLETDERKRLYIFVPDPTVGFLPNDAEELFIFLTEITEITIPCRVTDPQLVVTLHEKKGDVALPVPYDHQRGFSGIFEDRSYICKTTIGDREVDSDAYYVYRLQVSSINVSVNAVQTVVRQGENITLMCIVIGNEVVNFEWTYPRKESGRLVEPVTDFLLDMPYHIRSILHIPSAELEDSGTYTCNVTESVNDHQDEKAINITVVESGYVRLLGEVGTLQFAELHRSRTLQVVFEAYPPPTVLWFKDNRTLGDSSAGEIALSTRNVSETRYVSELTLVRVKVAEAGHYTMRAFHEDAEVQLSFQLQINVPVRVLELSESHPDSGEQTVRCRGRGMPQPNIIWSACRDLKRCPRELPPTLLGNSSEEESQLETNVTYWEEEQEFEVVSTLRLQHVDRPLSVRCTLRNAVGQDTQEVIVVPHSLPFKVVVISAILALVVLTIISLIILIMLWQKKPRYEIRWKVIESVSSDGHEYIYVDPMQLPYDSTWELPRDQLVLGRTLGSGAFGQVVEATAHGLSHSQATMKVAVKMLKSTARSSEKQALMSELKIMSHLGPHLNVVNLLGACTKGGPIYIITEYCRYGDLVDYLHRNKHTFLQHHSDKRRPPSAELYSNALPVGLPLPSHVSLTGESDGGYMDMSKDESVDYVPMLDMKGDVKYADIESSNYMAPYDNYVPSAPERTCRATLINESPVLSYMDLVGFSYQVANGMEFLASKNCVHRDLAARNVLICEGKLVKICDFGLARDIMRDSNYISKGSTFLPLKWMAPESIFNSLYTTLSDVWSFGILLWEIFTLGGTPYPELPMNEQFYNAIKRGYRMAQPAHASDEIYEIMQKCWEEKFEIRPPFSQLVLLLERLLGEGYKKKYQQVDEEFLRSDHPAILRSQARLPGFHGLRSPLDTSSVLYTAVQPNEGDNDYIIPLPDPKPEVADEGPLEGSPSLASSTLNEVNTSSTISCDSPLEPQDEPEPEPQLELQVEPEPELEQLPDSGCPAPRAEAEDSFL
# UniProt Q15118, whole entry, looked up: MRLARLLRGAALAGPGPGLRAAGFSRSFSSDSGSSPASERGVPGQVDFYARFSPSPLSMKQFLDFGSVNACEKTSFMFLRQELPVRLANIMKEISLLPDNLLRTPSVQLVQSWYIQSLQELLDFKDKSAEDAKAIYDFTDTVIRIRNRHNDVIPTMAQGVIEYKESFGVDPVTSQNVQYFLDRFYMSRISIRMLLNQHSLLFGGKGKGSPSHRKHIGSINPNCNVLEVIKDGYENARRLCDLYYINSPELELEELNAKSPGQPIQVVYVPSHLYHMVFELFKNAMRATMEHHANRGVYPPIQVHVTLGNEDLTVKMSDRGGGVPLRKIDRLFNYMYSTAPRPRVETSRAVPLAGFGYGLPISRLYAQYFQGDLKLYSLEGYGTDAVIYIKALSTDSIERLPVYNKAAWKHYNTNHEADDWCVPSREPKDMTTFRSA
# UniProt P42356, whole entry, looked up: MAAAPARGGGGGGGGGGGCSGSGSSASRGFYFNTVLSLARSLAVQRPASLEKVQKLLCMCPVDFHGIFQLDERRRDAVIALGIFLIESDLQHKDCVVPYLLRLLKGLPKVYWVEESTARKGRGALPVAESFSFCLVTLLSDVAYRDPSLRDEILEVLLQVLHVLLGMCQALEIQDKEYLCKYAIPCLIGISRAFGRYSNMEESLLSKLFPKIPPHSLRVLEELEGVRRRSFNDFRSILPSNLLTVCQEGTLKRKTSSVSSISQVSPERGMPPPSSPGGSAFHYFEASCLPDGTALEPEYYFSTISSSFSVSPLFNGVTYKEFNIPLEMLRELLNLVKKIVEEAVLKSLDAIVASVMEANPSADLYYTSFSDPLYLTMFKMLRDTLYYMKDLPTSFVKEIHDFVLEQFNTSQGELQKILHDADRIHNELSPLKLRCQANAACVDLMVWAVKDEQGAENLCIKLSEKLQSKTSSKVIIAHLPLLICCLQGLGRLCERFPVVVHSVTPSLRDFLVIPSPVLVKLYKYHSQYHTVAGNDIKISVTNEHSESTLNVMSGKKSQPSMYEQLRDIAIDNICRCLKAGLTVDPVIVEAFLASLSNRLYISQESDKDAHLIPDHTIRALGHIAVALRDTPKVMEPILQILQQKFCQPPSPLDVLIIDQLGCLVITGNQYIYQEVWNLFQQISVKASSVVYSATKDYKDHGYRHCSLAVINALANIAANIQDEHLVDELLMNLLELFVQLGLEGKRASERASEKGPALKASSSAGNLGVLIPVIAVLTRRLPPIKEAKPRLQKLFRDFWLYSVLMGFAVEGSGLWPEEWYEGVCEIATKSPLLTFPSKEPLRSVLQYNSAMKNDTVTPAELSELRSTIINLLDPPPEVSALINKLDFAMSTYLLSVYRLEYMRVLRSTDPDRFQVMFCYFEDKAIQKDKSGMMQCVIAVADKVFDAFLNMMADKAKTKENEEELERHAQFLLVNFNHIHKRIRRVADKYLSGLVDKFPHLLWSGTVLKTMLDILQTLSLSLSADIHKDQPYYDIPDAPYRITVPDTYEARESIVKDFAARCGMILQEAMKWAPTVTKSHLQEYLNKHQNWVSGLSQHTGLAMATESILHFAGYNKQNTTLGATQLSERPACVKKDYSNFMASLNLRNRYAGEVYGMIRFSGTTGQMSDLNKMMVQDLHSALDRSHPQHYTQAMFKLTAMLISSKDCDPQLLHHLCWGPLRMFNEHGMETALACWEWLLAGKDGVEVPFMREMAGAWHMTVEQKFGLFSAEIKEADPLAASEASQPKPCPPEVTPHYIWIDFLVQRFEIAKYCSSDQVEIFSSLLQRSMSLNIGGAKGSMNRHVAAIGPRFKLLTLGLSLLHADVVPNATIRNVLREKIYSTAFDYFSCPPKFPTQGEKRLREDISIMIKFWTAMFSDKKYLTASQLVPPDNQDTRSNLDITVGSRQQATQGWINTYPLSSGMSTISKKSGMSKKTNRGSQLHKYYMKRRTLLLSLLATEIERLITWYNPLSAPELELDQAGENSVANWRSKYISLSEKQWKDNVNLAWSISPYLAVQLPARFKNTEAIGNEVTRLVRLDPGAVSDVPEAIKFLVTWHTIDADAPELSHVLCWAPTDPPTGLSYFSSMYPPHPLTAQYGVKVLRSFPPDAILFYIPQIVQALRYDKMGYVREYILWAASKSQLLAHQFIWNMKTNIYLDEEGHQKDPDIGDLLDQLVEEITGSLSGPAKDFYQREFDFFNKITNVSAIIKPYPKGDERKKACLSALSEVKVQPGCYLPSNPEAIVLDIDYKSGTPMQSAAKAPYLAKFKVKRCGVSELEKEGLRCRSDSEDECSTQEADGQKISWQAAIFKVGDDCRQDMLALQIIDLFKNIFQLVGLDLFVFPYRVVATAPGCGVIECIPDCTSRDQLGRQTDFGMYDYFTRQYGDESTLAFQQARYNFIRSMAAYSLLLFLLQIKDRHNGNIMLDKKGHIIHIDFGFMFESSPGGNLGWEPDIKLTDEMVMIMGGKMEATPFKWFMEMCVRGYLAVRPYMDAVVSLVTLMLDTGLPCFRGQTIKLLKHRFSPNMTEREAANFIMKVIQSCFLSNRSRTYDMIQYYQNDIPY
# UniProt Q05397, whole entry, looked up: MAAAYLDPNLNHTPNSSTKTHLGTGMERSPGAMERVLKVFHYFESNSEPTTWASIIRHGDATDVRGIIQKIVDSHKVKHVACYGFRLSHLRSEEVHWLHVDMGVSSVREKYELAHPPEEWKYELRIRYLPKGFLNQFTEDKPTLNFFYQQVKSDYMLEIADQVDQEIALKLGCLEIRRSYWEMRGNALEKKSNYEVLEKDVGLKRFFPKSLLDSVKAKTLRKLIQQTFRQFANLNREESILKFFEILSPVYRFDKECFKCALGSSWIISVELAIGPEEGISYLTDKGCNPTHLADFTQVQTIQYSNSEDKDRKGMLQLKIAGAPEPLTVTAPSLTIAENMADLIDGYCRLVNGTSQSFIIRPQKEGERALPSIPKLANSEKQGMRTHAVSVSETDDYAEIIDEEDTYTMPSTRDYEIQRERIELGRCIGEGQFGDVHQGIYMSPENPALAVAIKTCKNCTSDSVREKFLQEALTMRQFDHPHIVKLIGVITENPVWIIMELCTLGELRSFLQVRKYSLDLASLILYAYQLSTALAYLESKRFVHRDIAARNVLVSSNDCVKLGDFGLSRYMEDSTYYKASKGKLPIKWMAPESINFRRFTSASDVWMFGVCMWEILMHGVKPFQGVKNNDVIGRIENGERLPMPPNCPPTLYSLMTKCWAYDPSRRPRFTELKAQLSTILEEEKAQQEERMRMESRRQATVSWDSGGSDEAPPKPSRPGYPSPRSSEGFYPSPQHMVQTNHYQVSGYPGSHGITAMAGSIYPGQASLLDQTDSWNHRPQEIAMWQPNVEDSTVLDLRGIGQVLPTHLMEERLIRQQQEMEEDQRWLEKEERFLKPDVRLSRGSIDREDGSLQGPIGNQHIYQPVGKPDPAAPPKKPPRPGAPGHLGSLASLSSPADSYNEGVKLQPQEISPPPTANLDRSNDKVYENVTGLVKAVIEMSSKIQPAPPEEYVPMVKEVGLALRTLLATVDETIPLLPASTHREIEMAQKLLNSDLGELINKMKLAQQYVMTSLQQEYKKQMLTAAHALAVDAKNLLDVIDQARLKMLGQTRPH
# Some of the results follow. The calls rarely recur for the same compound in another form.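 In K562 cells expressing nanoluciferase-fused kinases, luminescence was recorded at 4 h intervals between 2 and 18 h, normalized as percent of control with DMSO at 100% and a positive control at 0%. A significant (2 sigma) signal drop marks a time point as decreased. The authors' rule for a hit is not shown and takes in more than the number of time points.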
# Assays:
# Assay in all cases: kinase-Nluc reporter destabilization hit call (1 = scored as downregulated) (binary); higher = compound decreases kinase abundance
# Conditions in all cases: K562; 2-18 h
# [1] = molecular target: MAPK1 (UniProt P28482)
# [2] = molecular target: MAPK4 (UniProt P31152)
# [3] = molecular target: MAPKAPK2 (UniProt P49137)
# [4] = molecular target: MKNK1 (UniProt Q9BUB5)
# [5] = molecular target: NTRK2 (UniProt Q16620)
# [6] = molecular target: NTRK3 (UniProt Q16288)
# [7] = molecular target: PAK4 (UniProt O96013)
# [8] = molecular target: PBK (UniProt Q96KB5)
# [9] = molecular target: PDGFRB (UniProt P09619)
# [10] = molecular target: PDK1 (UniProt Q15118)
# [11] = molecular target: PDPK1 (UniProt O15530)
# [12] = molecular target: PIK4CA (UniProt P42356)
# [13] = molecular target: PIK4CB (UniProt Q9UBF8)
# [14] = molecular target: PLK1 (UniProt P53350)
# [15] = molecular target: PRKAA1 (UniProt Q13131)
# [16] = molecular target: PRKCA (UniProt P17252)
# [17] = molecular target: PTK2 (UniProt Q05397)
# [18] = molecular target: PTK2B (UniProt Q14289)
# [19] = molecular target: RAF1 (UniProt P04049)
# [20] = molecular target: RAF1_S257L (clone: RAF1_mut) (UniProt P04049)
SMILES,kinase-Nluc reporter destabilization hit call [1],kinase-Nluc reporter destabilization hit call [2],kinase-Nluc reporter destabilization hit call [3],kinase-Nluc reporter destabilization hit call [4],kinase-Nluc reporter destabilization hit call [5],kinase-Nluc reporter destabilization hit call [6],kinase-Nluc reporter destabilization hit call [7],kinase-Nluc reporter destabilization hit call [8],kinase-Nluc reporter destabilization hit call [9],kinase-Nluc reporter destabilization hit call [10],kinase-Nluc reporter destabilization hit call [11],kinase-Nluc reporter destabilization hit call [12],kinase-Nluc reporter destabilization hit call [13],kinase-Nluc reporter destabilization hit call [14],kinase-Nluc reporter destabilization hit call [15],kinase-Nluc reporter destabilization hit call [16],kinase-Nluc reporter destabilization hit call [17],kinase-Nluc reporter destabilization hit call [18],kinase-Nluc reporter destabilization hit call [19],kinase-Nluc reporter destabilization hit call [20]
C[C@@H](c1ccc2nccn2c1)n1nnc2ncc(-c3cnn(C)c3)nc21 [Savolitinib] (10 µM),inactive: 0,inactive: 0,inactive: 0,inactive: 0,inactive: 0,inactive: 0,inactive: 0,inactive: 0,inactive: 0,inactive: 0,inactive: 0,inactive: 0,inactive: 0,inactive: 0,inactive: 0,inactive: 0,inactive: 0,inactive: 0,inactive: 0,inactive: 0
N#CC(c1ccnc(NCCc2cccnc2)n1)c1nc2ccccc2s1 (stereo not given) (10 µM),inactive: 0,inactive: 0,inactive: 0,inactive: 0,inactive: 0,inactive: 0,inactive: 0,inactive: 0,inactive: 0,inactive: 0,inactive: 0,inactive: 0,inactive: 0,inactive: 0,inactive: 0,inactive: 0,inactive: 0,inactive: 0,inactive: 0,inactive: 0
Cc1cc(Nc2nc(N[C@@H](C)c3ccc(F)cc3)c(C#N)cc2F)n[nH]1 (10 µM),inactive: 0,inactive: 0,inactive: 0,inactive: 0,inactive: 0,inactive: 0,inactive: 0,inactive: 0,inactive: 0,inactive: 0,inactive: 0,inactive: 0,inactive: 0,inactive: 0,inactive: 0,inactive: 0,inactive: 0,inactive: 0,inactive: 0,inactive: 0
COc1ccc(CC(=O)Nc2nc3c(s2)CCc2ccccc2-3)cc1OC (10 µM),inactive: 0,inactive: 0,inactive: 0,inactive: 0,inactive: 0,inactive: 0,inactive: 0,inactive: 0,inactive: 0,inactive: 0,inactive: 0,inactive: 0,inactive: 0,inactive: 0,inactive: 0,inactive: 0,inactive: 0,inactive: 0,inactive: 0,inactive: 0
O=C(/C=C/c1ccc(O)c(O)c1)c1ccc(O[C@@H]2O[C@H](CO)[C@@H](O)[C@H](O)[C@H]2O)c(O)c1O [Marein] (10 µM),inactive: 0,inactive: 0,inactive: 0,inactive: 0,inactive: 0,inactive: 0,inactive: 0,inactive: 0,inactive: 0,inactive: 0,inactive: 0,inactive: 0,inactive: 0,inactive: 0,inactive: 0,inactive: 0,inactive: 0,inactive: 0,inactive: 0,inactive: 0
Cn1cnc(-c2cc3nccc(Oc4ccc(NC(=S)NC(=O)Cc5ccccc5)cc4F)c3s2)c1 [MGCD-265 analog] (10 µM),inactive: 0,inactive: 0,inactive: 0,inactive: 0,inactive: 0,inactive: 0,inactive: 0,inactive: 0,inactive: 0,inactive: 0,inactive: 0,inactive: 0,inactive: 0,inactive: 0,inactive: 0,inactive: 0,active: 1,inactive: 0,inactive: 0,inactive: 0
"O=C(/C=C/c1ccc(O)c(O)c1)OC1CC(OC(=O)/C=C/c2ccc(O)c(O)c2)(C(=O)O)CC(O)C1O (stereo not given) [1,3-Dicaffeoylquinic acid] (10 µM)",inactive: 0,inactive: 0,inactive: 0,inactive: 0,inactive: 0,inactive: 0,inactive: 0,inactive: 0,inactive: 0,inactive: 0,inactive: 0,inactive: 0,inactive: 0,inactive: 0,inactive: 0,inactive: 0,inactive: 0,inactive: 0,inactive: 0,inactive: 0
NC1(Cc2ccc(Cl)cc2)CCN(c2ncnc3[nH]ccc23)CC1 (10 µM),inactive: 0,inactive: 0,inactive: 0,inactive: 0,inactive: 0,inactive: 0,inactive: 0,inactive: 0,inactive: 0,inactive: 0,inactive: 0,inactive: 0,inactive: 0,inactive: 0,inactive: 0,inactive: 0,inactive: 0,inactive: 0,inactive: 0,inactive: 0
COc1cc2ncn(-c3cc(OCc4ccccc4S(C)(=O)=O)c(C#N)s3)c2cc1OC (10 µM),inactive: 0,inactive: 0,inactive: 0,inactive: 0,inactive: 0,inactive: 0,inactive: 0,inactive: 0,inactive: 0,inactive: 0,inactive: 0,inactive: 0,inactive: 0,inactive: 0,inactive: 0,inactive: 0,inactive: 0,inactive: 0,inactive: 0,inactive: 0
COc1cc2c[n+](C)c3c4cc5c(cc4ccc3c2cc1OC)OCO5 [Nitidine (chloride)] (2 µM),inactive: 0,inactive: 0,inactive: 0,inactive: 0,inactive: 0,inactive: 0,inactive: 0,inactive: 0,inactive: 0,inactive: 0,inactive: 0,inactive: 0,inactive: 0,inactive: 0,inactive: 0,inactive: 0,inactive: 0,inactive: 0,inactive: 0,inactive: 0
COCCO[C@@H]1[C@H](O)[C@@H](CO)O[C@H]1n1cnc2c(=O)[nH]c(N)nc21 [2′-O-(2-Methoxyethyl)guanosine] (10 µM),inactive: 0,inactive: 0,inactive: 0,inactive: 0,inactive: 0,inactive: 0,inactive: 0,inactive: 0,inactive: 0,inactive: 0,inactive: 0,inactive: 0,inactive: 0,inactive: 0,inactive: 0,inactive: 0,inactive: 0,inactive: 0,inactive: 0,inactive: 0
OC[C@H]1O[C@@H](Oc2cc3c(O)cc(O)cc3[o+]c2-c2cc(O)c(O)c(O)c2)[C@H](O)[C@@H](O)[C@@H]1O [Delphinidin 3-glucoside (chloride)] (10 µM),inactive: 0,inactive: 0,inactive: 0,inactive: 0,inactive: 0,inactive: 0,inactive: 0,inactive: 0,inactive: 0,inactive: 0,inactive: 0,inactive: 0,inactive: 0,inactive: 0,inactive: 0,inactive: 0,inactive: 0,inactive: 0,inactive: 0,inactive: 0
CC[C@@]1(c2ccccc2)C2=C(CC(C)(C)CC2=O)Nc2[nH]ncc21 (10 µM),inactive: 0,inactive: 0,inactive: 0,inactive: 0,inactive: 0,inactive: 0,inactive: 0,inactive: 0,inactive: 0,inactive: 0,inactive: 0,inactive: 0,inactive: 0,inactive: 0,inactive: 0,inactive: 0,inactive: 0,inactive: 0,inactive: 0,inactive: 0
O=[N+]([O-])c1cc(C(F)(F)F)cc([N+](=O)[O-])c1NNC(=S)Nc1ccc(F)cc1 (10 µM),inactive: 0,inactive: 0,inactive: 0,inactive: 0,inactive: 0,inactive: 0,inactive: 0,inactive: 0,inactive: 0,inactive: 0,inactive: 0,inactive: 0,inactive: 0,inactive: 0,inactive: 0,inactive: 0,inactive: 0,inactive: 0,inactive: 0,inactive: 0
O=C(NCCO)c1ccc2c(c1)nc(Nc1cccc(Cl)c1)c1ccncc12 [CK2 inhibitor 2] (10 µM),inactive: 0,inactive: 0,inactive: 0,inactive: 0,inactive: 0,inactive: 0,inactive: 0,inactive: 0,inactive: 0,inactive: 0,inactive: 0,inactive: 0,inactive: 0,inactive: 0,inactive: 0,inactive: 0,inactive: 0,inactive: 0,inactive: 0,inactive: 0
COc1c(NC(=O)C(=O)c2ccc(OCCN3CCOCC3)c3ccccc23)cc(C(C)(C)C)cc1NS(C)(=O)=O (2.5 µM),inactive: 0,inactive: 0,inactive: 0,inactive: 0,inactive: 0,inactive: 0,inactive: 0,inactive: 0,inactive: 0,inactive: 0,inactive: 0,inactive: 0,inactive: 0,inactive: 0,inactive: 0,inactive: 0,inactive: 0,inactive: 0,inactive: 0,inactive: 0
COCCOc1cnc(Sc2cc(C)c(-c3csc(NC(=O)c4ccncc4)n3)c(C)c2)cn1 [T-1101 (tosylate)] (2.5 µM),inactive: 0,inactive: 0,inactive: 0,inactive: 0,inactive: 0,inactive: 0,inactive: 0,inactive: 0,inactive: 0,inactive: 0,inactive: 0,inactive: 0,inactive: 0,inactive: 0,inactive: 0,inactive: 0,inactive: 0,inactive: 0,inactive: 0,inactive: 0
O=C(CNC(=O)c1ccc(-c2ccccc2)cc1)NC1CCCc2ccccc21 (stereo not given) [TAO Kinase inhibitor 1] (10 µM),inactive: 0,inactive: 0,inactive: 0,inactive: 0,inactive: 0,inactive: 0,inactive: 0,inactive: 0,inactive: 0,inactive: 0,inactive: 0,inactive: 0,inactive: 0,inactive: 0,inactive: 0,inactive: 0,inactive: 0,inactive: 0,inactive: 0,inactive: 0

# Quoted at random: two compounds from above.
SMILES,kinase-Nluc reporter destabilization hit call [1],kinase-Nluc reporter destabilization hit call [2],kinase-Nluc reporter destabilization hit call [3],kinase-Nluc reporter destabilization hit call [4],kinase-Nluc reporter destabilization hit call [5],kinase-Nluc reporter destabilization hit call [6],kinase-Nluc reporter destabilization hit call [7],kinase-Nluc reporter destabilization hit call [8],kinase-Nluc reporter destabilization hit call [9],kinase-Nluc reporter destabilization hit call [10],kinase-Nluc reporter destabilization hit call [11],kinase-Nluc reporter destabilization hit call [12],kinase-Nluc reporter destabilization hit call [13],kinase-Nluc reporter destabilization hit call [14],kinase-Nluc reporter destabilization hit call [15],kinase-Nluc reporter destabilization hit call [16],kinase-Nluc reporter destabilization hit call [17],kinase-Nluc reporter destabilization hit call [18],kinase-Nluc reporter destabilization hit call [19],kinase-Nluc reporter destabilization hit call [20]
COc1c(NC(=O)C(=O)c2ccc(OCCN3CCOCC3)c3ccccc23)cc(C(C)(C)C)cc1NS(C)(=O)=O (2.5 µM),inactive: 0,inactive: 0,inactive: 0,inactive: 0,inactive: 0,inactive: 0,inactive: 0,inactive: 0,inactive: 0,inactive: 0,inactive: 0,inactive: 0,inactive: 0,inactive: 0,inactive: 0,inactive: 0,inactive: 0,inactive: 0,inactive: 0,inactive: 0
COc1cc2c[n+](C)c3c4cc5c(cc4ccc3c2cc1OC)OCO5 [Nitidine (chloride)] (2 µM),inactive: 0,inactive: 0,inactive: 0,inactive: 0,inactive: 0,inactive: 0,inactive: 0,inactive: 0,inactive: 0,inactive: 0,inactive: 0,inactive: 0,inactive: 0,inactive: 0,inactive: 0,inactive: 0,inactive: 0,inactive: 0,inactive: 0,inactive: 0
